Numbering of substitutions follows the chain as printed. Names and notes keep the numbering of the source. No constants are given. Whether binding was seen depends on the method and setting. In cells and extracts the contact can be indirect. Some binding calls cover weakened binding; strength is not graded here. Where a sequence is shown, tags or fusion partners need not be part of it.
Target: T1, Glu-tagged KSR1 (UniProt Q61097)
T1 sequence: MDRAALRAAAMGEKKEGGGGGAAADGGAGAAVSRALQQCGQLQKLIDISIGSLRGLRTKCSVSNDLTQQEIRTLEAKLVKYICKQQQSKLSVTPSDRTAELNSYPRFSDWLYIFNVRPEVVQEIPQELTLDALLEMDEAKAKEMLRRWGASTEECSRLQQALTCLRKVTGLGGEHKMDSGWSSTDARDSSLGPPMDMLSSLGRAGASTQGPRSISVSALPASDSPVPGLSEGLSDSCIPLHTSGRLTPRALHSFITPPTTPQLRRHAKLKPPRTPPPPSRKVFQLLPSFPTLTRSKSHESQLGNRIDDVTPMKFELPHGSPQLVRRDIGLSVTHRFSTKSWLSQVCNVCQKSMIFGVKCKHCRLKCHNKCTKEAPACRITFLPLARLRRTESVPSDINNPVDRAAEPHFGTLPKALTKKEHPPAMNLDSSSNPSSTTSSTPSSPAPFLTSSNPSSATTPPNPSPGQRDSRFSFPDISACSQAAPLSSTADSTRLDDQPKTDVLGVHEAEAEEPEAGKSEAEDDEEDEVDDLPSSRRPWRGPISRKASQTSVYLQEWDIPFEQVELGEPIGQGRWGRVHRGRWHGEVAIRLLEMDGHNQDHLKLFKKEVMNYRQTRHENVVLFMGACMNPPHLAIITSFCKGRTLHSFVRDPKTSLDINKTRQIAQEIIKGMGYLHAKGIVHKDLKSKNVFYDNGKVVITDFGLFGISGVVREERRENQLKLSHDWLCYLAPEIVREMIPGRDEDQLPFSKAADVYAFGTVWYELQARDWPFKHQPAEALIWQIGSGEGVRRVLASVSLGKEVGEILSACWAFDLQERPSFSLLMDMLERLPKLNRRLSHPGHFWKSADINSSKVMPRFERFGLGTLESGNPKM
Assay: co-IP; HEK293T transfected with Glu- and Flag-tagged KSR1 constructs; EGF-stimulated where indicated; preimmune serum as control

B1: Flag-tagged KSR1 C809Y (protein, UniProt Q61097 1-873)
chain: T1 sequence with C809Y
  binding: binds

From PMC9931222
